Results published in paper PMC4839565, “Evolution of Telomeres in Schizosaccharomyces pombe and Its Possible Relationship to the Diversification of Telomere Binding Proteins”.
A weaker result is weaker than the reference pair of the same experiment. Protein sequences can lack the tags named with them. The exact form of at least one protein or probe is not confirmed. At least one verdict was read from the data and is not stated in words by the source.

Assays:
[1] = target: T1, Taz1p (6HN-Taz1) (Schizosaccharomyces pombe) (UniProt P79005); test: EMSA; conditions: 0.1 mM DTT, EMSA: 15 nM DNA, 0.05-4.5 uM protein, room temperature 10 min, recombinant protein, residues 2-663, protein details: N-terminal 6HN
T1 sequence (looked up): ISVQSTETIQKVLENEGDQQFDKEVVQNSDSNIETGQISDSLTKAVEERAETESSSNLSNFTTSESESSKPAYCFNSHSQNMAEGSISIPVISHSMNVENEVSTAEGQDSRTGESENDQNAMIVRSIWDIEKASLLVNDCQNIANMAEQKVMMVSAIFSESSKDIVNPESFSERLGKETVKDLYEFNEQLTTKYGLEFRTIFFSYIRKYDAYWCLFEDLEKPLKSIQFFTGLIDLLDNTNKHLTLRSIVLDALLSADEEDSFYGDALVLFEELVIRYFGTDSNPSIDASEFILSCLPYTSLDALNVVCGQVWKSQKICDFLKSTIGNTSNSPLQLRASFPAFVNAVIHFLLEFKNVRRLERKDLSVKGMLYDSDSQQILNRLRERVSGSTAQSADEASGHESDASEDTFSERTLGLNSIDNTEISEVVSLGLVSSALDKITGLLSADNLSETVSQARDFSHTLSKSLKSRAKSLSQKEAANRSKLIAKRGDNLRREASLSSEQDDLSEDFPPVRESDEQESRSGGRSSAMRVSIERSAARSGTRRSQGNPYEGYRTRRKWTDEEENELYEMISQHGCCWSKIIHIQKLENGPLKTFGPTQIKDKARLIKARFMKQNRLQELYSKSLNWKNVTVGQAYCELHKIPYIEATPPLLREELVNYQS

[2] = target: T2, Teb1p (6HN-Teb1) (Schizosaccharomyces pombe) (UniProt Q10274); test: EMSA; conditions: no DTT, EMSA: 15 nM DNA, 0.05-4.5 uM protein, room temperature 10 min, recombinant protein, residues 2-390
T2 sequence (looked up): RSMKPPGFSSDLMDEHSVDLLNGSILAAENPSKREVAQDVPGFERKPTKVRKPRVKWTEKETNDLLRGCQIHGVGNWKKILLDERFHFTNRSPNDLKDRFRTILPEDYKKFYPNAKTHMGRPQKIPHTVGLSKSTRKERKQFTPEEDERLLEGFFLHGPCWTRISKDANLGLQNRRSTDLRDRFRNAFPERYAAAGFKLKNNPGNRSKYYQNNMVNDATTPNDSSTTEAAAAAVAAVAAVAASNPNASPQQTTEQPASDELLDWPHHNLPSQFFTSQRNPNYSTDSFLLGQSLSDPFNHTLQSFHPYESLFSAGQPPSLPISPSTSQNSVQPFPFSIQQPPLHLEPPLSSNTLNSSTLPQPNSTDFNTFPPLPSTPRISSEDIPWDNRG

[3] = better than SpTEL, complex unstable, label: 5'-32P on strand A

Sequence	binding result ([2]; label: 5'-32P on strand A)	binding result ([1]; label: 5'-32P on strand A)	further results
AGGGTGTGAGTTGTGAT (double strand) [HisBoxMut]			binding result ([1]; bound only at highest concentration, label: 5'-32P on strand A): binds more weakly
AGGGTTAGGGCCACAGC (double strand) [HisBoxFlank3']	binds more weakly	binds more weakly	
AGGGTTAGGGTTGTGAT (double strand) [HisBox]			binding result [1]: binds more weakly
GAAATTAGGGCCACAGC (double strand) [HisBoxFlank]	binds more weakly	binds more weakly	
GAAATTAGGGTTGTGAT (double strand) [HisBoxFlank5']	binds more weakly	binds	
TTACAGGGGGTTACAGGG (double strand) [SpTEL]			binding result [2]: binds more weakly
TTACAGGGGGTTACGGGG (double strand) [SpTEL-M2]			binding result [2, 3]: binds more weakly
TTACAGGGGGTTAGAGGG (double strand) [SpTEL-M1]			binding result [2, 3]: binds more weakly
TTACAGGGGGTTAGGGGG (double strand) [SpTEL-M3]	binds		
